According to publication PMC12712952:
No constants are given. Whether binding was seen depends on the method and setting. Binding seen in cells or lysates may run through a third protein. Some results given as binding are weak or reduced against the parent protein; the word gives no strength.

Protein sequences, listed by entry. Tags and fused reporters are not part of them. Lines headed by an entry give the natural chain unless they say otherwise; changes in a name come on top.
UniProt Q9R1E0: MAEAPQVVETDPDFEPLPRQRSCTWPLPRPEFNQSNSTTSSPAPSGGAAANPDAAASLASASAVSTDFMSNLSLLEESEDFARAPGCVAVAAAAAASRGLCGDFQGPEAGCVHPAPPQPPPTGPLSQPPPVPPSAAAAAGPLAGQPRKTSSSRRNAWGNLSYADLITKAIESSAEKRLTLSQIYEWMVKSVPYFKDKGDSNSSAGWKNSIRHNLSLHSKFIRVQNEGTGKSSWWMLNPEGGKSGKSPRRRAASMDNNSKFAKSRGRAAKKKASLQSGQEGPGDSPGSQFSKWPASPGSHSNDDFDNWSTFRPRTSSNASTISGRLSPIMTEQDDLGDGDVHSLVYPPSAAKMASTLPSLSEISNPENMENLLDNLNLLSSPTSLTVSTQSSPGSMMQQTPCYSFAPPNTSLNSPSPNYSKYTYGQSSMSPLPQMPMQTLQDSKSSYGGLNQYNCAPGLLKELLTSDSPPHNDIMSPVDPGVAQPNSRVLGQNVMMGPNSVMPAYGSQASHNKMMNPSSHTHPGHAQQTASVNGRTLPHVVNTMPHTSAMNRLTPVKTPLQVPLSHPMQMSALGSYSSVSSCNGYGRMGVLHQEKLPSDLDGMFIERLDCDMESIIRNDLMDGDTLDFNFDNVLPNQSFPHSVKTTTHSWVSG
UniProt Q61985: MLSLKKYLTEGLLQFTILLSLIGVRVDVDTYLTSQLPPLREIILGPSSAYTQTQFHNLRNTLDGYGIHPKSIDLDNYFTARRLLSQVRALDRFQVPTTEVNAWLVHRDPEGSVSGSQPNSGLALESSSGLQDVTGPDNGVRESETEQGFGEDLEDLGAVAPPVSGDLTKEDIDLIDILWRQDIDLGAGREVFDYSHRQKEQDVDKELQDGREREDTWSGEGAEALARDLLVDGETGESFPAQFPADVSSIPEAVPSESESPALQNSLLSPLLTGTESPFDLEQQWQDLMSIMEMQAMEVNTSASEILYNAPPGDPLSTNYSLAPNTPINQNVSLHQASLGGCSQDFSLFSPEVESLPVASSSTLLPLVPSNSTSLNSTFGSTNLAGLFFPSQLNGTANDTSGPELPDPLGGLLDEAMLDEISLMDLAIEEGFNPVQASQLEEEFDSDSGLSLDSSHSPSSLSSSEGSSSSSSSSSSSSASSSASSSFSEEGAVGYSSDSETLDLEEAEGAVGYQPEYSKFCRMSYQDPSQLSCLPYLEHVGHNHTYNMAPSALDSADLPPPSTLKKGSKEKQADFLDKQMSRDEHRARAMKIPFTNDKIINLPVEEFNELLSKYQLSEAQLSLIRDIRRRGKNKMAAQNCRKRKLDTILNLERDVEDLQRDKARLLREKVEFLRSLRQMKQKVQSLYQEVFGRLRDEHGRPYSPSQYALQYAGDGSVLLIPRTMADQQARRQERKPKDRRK

How the values were obtained:
[1] = molecular target: Foxo1 protein of the GST pull-down assay (UniProt Q9R1E0); assay: pull-down; GST pull-down between Nrf1 and Foxo1 proteins; which one carried GST is not told
[2] = molecular target: Forkhead box protein o1 (Foxo1), endogenous in mouse bone marrow-derived macrophages (mouse (endogenous in BMMs)) (UniProt Q9R1E0); assay: co-IP; immunoprecipitation from LPS-stimulated macrophages (BMMs) of WT mice; endogenous proteins
[3] = molecular target: Forkhead box protein o1 (Foxo1), endogenous in mouse bone marrow-derived macrophages (mouse (endogenous in BMMs)) (UniProt Q9R1E0); assay: FRET or BRET; immunofluorescence staining and FRET analysis of Nrf1 and Foxo1 in macrophages stimulated with LPS; signal in the nucleus

Row | Substance | binding [1] | binding [2] | binding [3]
1 | Nrf1 protein of the GST pull-down assay (from UniProt Q61985 104-741) | binds |  | 
2 | Nuclear factor erythroid 2-like 1 (Nrf1/NFE2L1), endogenous in mouse bone marrow-derived macrophages (from UniProt Q61985 1-741) |  | binds | binds
